This is an account of results in the M2OR odorant receptor database.

Chains of the proteins cited; added tags and fusions are not shown. Chains listed by the source or under a name are the forms on record and can include a tag or linker.
OR9G1, as listed by the source: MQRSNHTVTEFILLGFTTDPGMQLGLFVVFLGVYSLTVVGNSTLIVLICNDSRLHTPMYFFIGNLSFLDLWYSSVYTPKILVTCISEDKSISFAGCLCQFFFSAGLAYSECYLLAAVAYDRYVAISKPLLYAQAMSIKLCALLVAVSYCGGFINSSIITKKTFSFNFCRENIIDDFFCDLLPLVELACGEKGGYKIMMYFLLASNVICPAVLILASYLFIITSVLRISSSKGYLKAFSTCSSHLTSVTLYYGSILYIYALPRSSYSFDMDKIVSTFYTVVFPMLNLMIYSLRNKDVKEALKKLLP

This is a selection; strong and weak results do not stand in their true shares. Calls are pooled over several reports, among them a noisy single-well screen. The list shows a part of the results.

What all share (settings): stereoisomer not certain
One experiment concerns T1, OR8U9.
T1 sequence (whole entry): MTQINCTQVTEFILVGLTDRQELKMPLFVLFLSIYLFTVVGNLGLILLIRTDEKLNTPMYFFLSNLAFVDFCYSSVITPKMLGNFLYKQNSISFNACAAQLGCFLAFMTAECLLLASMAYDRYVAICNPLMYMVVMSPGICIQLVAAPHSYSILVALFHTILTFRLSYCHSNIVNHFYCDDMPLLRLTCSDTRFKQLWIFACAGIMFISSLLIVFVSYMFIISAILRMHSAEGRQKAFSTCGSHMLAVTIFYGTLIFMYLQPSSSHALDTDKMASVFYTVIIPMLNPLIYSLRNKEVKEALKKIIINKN
Put shortly: (§1)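 Each entry records the cell line, G-protein, co-transfected protein and tags used. Methods varied with the source, often transient luciferase assays in mammalian cell lines. A receptor–molecule pair is called responsive (active) if the original authors judged its signal statistically different from baseline and non-responsive (inactive) otherwise.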

In another experiment the test system is T2, OR9A2.
T2 sequence (whole entry): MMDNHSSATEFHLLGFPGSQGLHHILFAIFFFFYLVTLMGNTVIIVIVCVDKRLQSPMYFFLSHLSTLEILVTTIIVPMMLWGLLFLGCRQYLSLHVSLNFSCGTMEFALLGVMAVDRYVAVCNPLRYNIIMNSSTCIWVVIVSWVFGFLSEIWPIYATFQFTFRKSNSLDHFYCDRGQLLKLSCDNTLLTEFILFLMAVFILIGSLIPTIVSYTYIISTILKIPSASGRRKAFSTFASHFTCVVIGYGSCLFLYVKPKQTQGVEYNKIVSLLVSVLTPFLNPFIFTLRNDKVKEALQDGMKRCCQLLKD
Put shortly:
as §1

A further experiment deals with T3, OR9A4 (Homo sapiens) (UniProt Q8NGU2).
T3 sequence (whole entry): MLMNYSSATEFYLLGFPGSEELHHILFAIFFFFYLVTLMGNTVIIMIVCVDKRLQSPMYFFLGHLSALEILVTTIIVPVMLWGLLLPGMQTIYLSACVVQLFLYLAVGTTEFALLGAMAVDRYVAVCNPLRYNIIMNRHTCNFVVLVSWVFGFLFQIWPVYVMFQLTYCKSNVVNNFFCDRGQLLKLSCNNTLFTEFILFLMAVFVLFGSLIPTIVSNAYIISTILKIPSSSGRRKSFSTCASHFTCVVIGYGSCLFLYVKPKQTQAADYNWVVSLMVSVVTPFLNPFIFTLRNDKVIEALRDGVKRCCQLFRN
Put shortly:
as §1

Experiment [1] has as its system OR9G1. Put shortly:
as §1

In experiment [2] the test system is OR9G1. Put shortly:
as §1
The source holds these as a separate data set.

Experiment [3] relates to OR9G1. Put shortly: as §1
The source holds these as a separate data set.

Experiment [4] concerns OR9G1. Put shortly:
as §1
This is another data set of the same source.

As for `CC(C)C(=O)O`, the “odorant receptor agonist call” value with OR8U9, with OR9A2 and with OR9A4 (Homo sapiens) was “inactive” in each case.
Take `c1cnccn1`: the “odorant receptor agonist call” value in the experiment with OR8U9, with OR9A2 and with OR9A4 (Homo sapiens) was “inactive” throughout.
For the molecule `COc1cc(C)ccc1O`, the “odorant receptor agonist call” value with OR8U9, in the experiment on OR9A2 and with OR9A4 (Homo sapiens) was “inactive” throughout.
Turning to `COC(=O)c1ccccc1`, the “odorant receptor agonist call” value with OR8U9, in the experiment with OR9A2 and with OR9A4 (Homo sapiens) was “inactive” each time.
In the case of `C=CCc1ccc(OC)c(OC)c1`, the “odorant receptor agonist call” value with OR8U9, in the experiment on OR9A2 and in the experiment with OR9A4 (Homo sapiens) was “inactive” in each case.
With `CC(C)CC(=O)O`, the “odorant receptor agonist call” value in the experiment on OR8U9 and in the experiment with OR9A4 (Homo sapiens) was “inactive” throughout. The “odorant receptor agonist call” value in the experiment on OR9A2 is “active”.
As to `O=C1CCCCC1`, the “odorant receptor agonist call” value in the experiment with OR8U9, in the experiment on OR9A2 and with OR9A4 (Homo sapiens) was “inactive” each time.
With `C=CCc1ccc(OC(C)=O)c(OC)c1`, the “odorant receptor agonist call” value in the experiment on OR8U9, with OR9A2, in the experiment with OR9A4 (Homo sapiens), in the experiment with OR9G1 [1], with OR9G1 [2] and in the experiment on OR9G1 [3] was “inactive” each time. Moreover, the “odorant receptor agonist call” value in the experiment on OR9G1 [4] was “inactive”.
`c1ccc(Oc2ccccc2)cc1`: the “odorant receptor agonist call” value with OR8U9, in the experiment with OR9A2 and with OR9A4 (Homo sapiens) was “inactive” each time.
`CC(=O)OC(C)(C)C1CC=C(C)CC1` (stereo not given): the “odorant receptor agonist call” value in the experiment with OR8U9, with OR9A2 and in the experiment with OR9A4 (Homo sapiens) was “inactive” each time.
Consider `CC12CCC(C1)C(C)(C)C2=O` (stereo not given), for which the “odorant receptor agonist call” value with OR8U9, in the experiment on OR9A2 and with OR9A4 (Homo sapiens) was “inactive” each time.
In the case of `CCCCCC(C)=O`, the “odorant receptor agonist call” value with OR8U9, in the experiment on OR9A2 and with OR9A4 (Homo sapiens) was “inactive” in each case.
`CC(=O)c1ccccc1`: the “odorant receptor agonist call” value with OR8U9, in the experiment with OR9A2 and with OR9A4 (Homo sapiens) was “inactive” in each case.
For the molecule `CC(C)(C)c1ccc(CCC=O)cc1`, the “odorant receptor agonist call” value in the experiment with OR8U9, in the experiment with OR9A2 and in the experiment with OR9A4 (Homo sapiens) was “inactive” in each case.
Consider `CCCCO`, for which the “odorant receptor agonist call” value in the experiment with OR8U9, in the experiment on OR9A2 and with OR9A4 (Homo sapiens) was “inactive” throughout.
For `CC(C)C=O`, the “odorant receptor agonist call” value with OR8U9 and in the experiment with OR9A2 was “inactive” each time. In the experiment with OR9A4 (Homo sapiens), the “odorant receptor agonist call” value is “active”.
With `CCCC(=O)O`, the “odorant receptor agonist call” value in the experiment with OR8U9, in the experiment with OR9A2 and in the experiment with OR9A4 (Homo sapiens) was “inactive” throughout.
In the case of `CCCCCCCCCC=O`, the “odorant receptor agonist call” value in the experiment on OR8U9, in the experiment with OR9A2 and with OR9A4 (Homo sapiens) was “inactive” throughout.
Turning to `CCC1(O)C2(C)CCC(C2)C1(C)C` (stereo not given), the “odorant receptor agonist call” value with OR8U9, in the experiment with OR9A2 and in the experiment with OR9A4 (Homo sapiens) was “inactive” in each case.
As to `CCCCCCCC=CC=O`, the “odorant receptor agonist call” value in the experiment with OR8U9, in the experiment on OR9A2 and in the experiment with OR9A4 (Homo sapiens) was “inactive” in each case.
On to `CCCCCC(=O)O`, for which the “odorant receptor agonist call” value with OR8U9, in the experiment on OR9A2 and in the experiment with OR9A4 (Homo sapiens) was “inactive” in each case.
Consider `CCCCCCCCOC(C)=O`, for which the “odorant receptor agonist call” value in the experiment on OR8U9, in the experiment on OR9A2 and with OR9A4 (Homo sapiens) was “inactive” each time.
